# Results: the supplement of paper PMC12067093, “Discovery and optimisation of a covalent ligand for TRIM25 and its application to targeted protein ubiquitination” (Chemical Science, 2025)
# Amino acid sequences for entries named in this document (tags omitted). A change or cut given only in a name is not applied to a line headed by its entry.
# UniProt Q9NXH9: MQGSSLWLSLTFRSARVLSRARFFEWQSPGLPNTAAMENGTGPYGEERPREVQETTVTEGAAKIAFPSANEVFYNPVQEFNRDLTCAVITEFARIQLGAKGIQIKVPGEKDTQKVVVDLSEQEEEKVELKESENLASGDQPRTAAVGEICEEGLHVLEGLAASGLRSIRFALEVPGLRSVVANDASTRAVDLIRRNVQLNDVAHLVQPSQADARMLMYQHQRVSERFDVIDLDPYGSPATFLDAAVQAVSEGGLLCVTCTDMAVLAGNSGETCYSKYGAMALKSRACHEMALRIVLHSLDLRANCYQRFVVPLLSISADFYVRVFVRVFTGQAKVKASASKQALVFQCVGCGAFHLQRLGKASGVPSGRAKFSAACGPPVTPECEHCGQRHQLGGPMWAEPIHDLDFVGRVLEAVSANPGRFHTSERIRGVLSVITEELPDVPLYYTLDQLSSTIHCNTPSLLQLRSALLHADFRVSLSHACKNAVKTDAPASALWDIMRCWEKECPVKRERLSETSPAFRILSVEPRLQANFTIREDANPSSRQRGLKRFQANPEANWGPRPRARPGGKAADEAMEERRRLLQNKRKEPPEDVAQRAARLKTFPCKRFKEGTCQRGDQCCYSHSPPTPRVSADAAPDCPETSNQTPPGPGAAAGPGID
# UniProt O14545: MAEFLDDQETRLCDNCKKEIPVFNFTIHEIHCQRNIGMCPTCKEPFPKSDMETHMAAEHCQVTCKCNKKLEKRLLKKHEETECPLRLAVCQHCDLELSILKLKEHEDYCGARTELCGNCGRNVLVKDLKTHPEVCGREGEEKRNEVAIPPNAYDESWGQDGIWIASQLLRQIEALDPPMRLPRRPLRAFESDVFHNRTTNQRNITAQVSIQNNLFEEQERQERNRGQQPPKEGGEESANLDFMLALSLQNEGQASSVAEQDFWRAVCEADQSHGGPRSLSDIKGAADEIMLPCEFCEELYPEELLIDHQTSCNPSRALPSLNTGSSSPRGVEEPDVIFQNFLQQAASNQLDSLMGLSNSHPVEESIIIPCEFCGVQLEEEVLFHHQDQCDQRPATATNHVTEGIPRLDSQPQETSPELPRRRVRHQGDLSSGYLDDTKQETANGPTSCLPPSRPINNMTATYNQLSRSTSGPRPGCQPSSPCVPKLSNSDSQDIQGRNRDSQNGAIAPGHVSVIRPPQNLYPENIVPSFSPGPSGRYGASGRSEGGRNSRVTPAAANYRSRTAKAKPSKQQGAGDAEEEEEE
# UniProt Q8IZ69: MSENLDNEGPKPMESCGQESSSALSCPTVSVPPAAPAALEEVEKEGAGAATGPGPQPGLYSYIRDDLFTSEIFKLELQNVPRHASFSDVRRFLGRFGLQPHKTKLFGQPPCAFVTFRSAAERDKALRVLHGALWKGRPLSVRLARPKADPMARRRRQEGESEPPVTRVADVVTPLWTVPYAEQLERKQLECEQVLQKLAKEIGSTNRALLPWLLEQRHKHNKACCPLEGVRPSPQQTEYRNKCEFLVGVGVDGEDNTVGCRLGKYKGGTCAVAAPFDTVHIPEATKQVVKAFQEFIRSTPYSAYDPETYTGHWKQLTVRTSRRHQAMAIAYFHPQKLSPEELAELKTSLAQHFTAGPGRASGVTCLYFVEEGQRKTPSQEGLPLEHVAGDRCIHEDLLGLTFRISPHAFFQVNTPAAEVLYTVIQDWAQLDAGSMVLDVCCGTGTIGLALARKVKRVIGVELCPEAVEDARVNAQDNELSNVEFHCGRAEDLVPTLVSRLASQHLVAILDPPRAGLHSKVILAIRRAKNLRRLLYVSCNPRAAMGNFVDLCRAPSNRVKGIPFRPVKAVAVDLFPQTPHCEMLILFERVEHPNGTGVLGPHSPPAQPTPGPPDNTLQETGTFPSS
# UniProt P19474, whole entry, looked up: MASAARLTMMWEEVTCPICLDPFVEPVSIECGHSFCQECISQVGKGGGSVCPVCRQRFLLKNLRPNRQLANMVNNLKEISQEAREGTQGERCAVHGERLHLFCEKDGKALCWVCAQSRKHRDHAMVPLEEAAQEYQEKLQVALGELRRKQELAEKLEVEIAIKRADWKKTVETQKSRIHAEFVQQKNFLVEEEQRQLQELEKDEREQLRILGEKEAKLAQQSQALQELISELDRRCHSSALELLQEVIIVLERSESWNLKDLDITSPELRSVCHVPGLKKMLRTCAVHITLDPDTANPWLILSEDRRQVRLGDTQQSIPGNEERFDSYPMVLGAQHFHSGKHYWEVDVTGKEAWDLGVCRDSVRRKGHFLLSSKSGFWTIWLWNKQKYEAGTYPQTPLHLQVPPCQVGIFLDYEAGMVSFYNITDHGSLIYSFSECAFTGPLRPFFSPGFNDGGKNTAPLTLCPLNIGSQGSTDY
# UniProt Q9UL33, whole entry, looked up: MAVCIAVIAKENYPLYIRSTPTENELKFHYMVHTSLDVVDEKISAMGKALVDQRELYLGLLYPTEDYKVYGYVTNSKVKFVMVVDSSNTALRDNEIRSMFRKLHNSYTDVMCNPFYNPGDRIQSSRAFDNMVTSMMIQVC
# UniProt Q7Z2T5: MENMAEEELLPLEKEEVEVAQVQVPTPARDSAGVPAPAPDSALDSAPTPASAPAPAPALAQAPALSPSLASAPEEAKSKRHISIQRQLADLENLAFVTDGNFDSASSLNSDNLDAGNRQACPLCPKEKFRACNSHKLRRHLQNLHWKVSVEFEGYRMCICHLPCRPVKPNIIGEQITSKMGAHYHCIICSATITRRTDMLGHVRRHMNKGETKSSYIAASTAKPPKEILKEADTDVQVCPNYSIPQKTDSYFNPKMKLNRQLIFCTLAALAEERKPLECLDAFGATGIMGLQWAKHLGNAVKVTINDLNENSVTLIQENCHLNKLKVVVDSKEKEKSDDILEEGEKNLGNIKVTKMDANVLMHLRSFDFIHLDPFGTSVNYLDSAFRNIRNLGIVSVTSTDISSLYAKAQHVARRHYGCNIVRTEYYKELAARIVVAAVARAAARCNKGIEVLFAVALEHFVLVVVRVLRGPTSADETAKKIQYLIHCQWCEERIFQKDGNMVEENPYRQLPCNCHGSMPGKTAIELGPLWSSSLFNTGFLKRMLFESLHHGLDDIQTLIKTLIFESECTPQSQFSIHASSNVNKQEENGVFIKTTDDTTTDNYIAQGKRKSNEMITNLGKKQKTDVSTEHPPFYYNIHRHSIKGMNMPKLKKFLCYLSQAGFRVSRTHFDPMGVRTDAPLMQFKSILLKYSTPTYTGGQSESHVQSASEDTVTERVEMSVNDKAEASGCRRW
# UniProt Q9BQ61: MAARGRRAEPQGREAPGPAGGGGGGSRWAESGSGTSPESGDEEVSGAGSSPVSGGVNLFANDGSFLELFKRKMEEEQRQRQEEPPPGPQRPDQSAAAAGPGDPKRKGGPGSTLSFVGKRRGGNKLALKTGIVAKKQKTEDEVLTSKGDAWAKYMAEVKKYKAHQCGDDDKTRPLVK
# UniProt Q9H3H1: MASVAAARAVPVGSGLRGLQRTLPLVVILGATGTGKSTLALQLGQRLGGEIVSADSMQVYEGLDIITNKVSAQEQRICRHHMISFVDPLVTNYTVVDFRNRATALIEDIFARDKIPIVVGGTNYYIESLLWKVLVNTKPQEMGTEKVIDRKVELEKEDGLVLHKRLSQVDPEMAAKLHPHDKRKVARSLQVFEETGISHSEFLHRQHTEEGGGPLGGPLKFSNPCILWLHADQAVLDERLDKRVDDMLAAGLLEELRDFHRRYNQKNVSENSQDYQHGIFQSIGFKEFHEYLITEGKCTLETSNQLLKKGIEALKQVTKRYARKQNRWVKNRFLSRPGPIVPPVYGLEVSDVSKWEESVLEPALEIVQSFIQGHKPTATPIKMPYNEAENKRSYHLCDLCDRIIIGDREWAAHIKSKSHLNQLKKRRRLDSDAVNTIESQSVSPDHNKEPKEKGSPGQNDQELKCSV
# UniProt A5PLN9: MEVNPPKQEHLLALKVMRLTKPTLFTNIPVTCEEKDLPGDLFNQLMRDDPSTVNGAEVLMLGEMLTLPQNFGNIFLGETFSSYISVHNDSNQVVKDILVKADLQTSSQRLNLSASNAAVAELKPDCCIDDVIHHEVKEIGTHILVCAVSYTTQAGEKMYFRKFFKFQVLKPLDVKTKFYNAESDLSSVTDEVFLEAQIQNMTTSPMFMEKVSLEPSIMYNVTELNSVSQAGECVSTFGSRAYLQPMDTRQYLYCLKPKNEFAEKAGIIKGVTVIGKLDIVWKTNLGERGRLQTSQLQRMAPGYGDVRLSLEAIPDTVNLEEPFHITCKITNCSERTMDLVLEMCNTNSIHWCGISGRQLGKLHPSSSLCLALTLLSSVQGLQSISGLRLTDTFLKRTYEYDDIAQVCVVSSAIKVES
# UniProt O15164: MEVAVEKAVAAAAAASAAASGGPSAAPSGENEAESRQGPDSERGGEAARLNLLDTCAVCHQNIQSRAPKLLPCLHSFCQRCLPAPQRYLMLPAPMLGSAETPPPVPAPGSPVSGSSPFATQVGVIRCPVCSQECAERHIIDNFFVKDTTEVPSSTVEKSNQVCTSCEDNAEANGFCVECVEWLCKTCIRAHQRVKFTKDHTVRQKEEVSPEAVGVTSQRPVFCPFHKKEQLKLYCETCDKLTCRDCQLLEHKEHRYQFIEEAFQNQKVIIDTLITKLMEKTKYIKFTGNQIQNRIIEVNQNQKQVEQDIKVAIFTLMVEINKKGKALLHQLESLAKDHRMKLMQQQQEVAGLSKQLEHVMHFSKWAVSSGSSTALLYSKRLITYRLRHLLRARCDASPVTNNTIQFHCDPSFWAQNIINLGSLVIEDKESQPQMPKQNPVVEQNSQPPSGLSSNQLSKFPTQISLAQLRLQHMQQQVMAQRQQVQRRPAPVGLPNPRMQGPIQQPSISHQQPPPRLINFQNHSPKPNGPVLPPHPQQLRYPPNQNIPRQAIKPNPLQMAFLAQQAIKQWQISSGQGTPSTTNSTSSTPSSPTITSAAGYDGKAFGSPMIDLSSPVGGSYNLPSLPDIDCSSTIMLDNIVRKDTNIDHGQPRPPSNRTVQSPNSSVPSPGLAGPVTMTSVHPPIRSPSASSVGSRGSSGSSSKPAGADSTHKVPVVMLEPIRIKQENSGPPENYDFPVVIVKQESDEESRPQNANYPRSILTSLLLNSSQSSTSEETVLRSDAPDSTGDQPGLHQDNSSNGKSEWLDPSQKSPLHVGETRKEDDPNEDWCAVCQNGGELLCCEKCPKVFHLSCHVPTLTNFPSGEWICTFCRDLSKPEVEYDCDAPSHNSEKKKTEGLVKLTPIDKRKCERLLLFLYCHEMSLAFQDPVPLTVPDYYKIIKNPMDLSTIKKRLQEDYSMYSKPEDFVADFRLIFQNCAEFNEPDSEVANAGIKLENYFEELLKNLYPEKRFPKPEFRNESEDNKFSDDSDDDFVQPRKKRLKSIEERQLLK
# UniProt Q9NQ86: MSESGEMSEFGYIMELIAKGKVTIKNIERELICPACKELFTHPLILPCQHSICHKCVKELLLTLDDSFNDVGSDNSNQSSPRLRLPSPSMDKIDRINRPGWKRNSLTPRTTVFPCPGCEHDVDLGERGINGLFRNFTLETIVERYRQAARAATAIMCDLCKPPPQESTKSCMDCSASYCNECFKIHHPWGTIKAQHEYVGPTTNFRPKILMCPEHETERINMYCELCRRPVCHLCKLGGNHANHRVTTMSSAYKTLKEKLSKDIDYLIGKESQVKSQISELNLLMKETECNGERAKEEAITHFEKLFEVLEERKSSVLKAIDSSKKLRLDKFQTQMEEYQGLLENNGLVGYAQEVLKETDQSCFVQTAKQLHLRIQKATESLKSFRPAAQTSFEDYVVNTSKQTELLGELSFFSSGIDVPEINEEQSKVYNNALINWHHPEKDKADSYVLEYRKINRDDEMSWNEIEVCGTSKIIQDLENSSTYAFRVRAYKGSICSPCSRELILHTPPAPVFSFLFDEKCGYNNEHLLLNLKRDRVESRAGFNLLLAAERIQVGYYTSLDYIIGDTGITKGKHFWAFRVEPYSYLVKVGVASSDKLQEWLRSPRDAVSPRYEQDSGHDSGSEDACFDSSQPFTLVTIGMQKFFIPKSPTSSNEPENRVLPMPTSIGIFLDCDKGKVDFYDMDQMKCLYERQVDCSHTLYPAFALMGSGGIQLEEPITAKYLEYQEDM
# UniProt Q12933: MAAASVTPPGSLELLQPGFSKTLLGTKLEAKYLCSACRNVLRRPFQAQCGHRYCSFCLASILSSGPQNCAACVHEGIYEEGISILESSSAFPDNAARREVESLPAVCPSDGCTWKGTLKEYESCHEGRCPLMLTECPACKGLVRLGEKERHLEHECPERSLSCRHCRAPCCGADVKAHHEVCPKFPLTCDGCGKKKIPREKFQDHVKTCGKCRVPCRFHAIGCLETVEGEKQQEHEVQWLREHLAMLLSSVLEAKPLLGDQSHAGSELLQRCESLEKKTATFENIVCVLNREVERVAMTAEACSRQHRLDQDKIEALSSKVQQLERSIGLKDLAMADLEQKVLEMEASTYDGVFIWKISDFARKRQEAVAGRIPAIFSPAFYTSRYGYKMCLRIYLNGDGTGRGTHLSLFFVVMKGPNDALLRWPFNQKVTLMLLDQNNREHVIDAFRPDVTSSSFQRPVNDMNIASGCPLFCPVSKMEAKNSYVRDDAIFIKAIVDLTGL
# The other results are listed elsewhere or left out.
# Compound: Cc1cc(ccc1-c1ccccc1)C(=O)N1CCCN(CC1)C(=O)CCl [compound 10]
# Assay: probe-labelled cysteine peptide fold change vs DMSO (competition) (log2 fold change); higher = less target engagement (more negative = stronger competition)
# Settings: THP-1, incubation time: 4 h
# 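Note: competitive profiling in live THP-1 cells: cysteine peptides tagged with an iodoacetamide desthiobiotin (IA-DTB) probe, intensity after compound treatment relative to DMSO-treated cells.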
Target,probe-labelled cysteine peptide fold change (10 µM),probe-labelled cysteine peptide fold change (50 µM)
TRIM25_Q14258_174+176+179_EFFCPEHSECICHICLVEHK (UniProt Q14258),-0.181,-0.757
TRMT1_Q9NXH9_387_FSAACGPPVTPECEHCGQR (UniProt Q9NXH9),0.0848,-0.116
TRIM28_Q13263_124_QQCFSK (UniProt Q13263),0.161,-0.242
TPX2_Q9ULW0_301_GCTIVK (UniProt Q9ULW0),0.583,0.294
TRAFD1_O14545_32_EIPVFNFTIHEIHCQR (UniProt O14545),0.282,0.345
TRMT1_Q9NXH9_86_DLTCAVITEFAR (UniProt Q9NXH9),-0.00606,-0.169
TRMT2A_Q8IZ69_463_VIGVELCPEAVEDAR (UniProt Q8IZ69),-0.181,-1.16
TRIP10_Q15642_99_VCLELTK (UniProt Q15642),-0.0206,0.0263
TRIP6_Q15654_387_GLDGIPFTVDATSQIHCIEDFHR (UniProt Q15654),-0.00816,0.0559
TRAP1_Q12931_527_DTEVLFCFEQFDELTLLHLR (UniProt Q12931),0.13,0.211
TRAF3_Q13114_61_CHLVLCSPK (UniProt Q13114),0.0758,-0.448
TRIP6_Q15654_282_LVHDMNHPPSGEYFGQCGGCGEDVVGDGAGVVALDR (UniProt Q15654),0.294,-0.00869
TRAP1_Q12931_527_KDTEVLFCFEQFDELTLLHLR (UniProt Q12931),0.143,0.314
TRAPPC11_Q7Z392_771_VPNISVHLLHEPPALTNEMYCLVVTVQSHEK (UniProt Q7Z392),0.225,0.0741
TRANK1_O15050_1947_DFQASCLLGAAR (UniProt O15050),0.0281,0.213
TPRKB_Q9Y3C4_167_LSSQEESIGTLLDAIICR (UniProt Q9Y3C4),0.0132,-0.163
TRIM13_O60858_129_HVFCSIEDAYAQER (UniProt O60858),0.0513,0.747
TRIM21_P19474_92_CAVHGER (UniProt P19474),-0.0683,-0.103
TRMT1_Q9NXH9_620+621_GDQCCYSHSPPTPR (UniProt Q9NXH9),-0.276,-0.722
TRABD_Q9H4I3_287_CVPSVVVGVVGMGHVPGIEK (UniProt Q9H4I3),-0.199,-0.123
TRMT2A_Q8IZ69_392_CIHEDLLGLTFR (UniProt Q8IZ69),0.00498,-0.18

Target,probe-labelled cysteine peptide fold change (10 µM),probe-labelled cysteine peptide fold change (50 µM)
TRAPPC2L_Q9UL33_4_AVCIAVIAK (UniProt Q9UL33),-0.0444,0.418
TRMT1L_Q7Z2T5_121_QACPLCPK (UniProt Q7Z2T5),-0.0455,-0.125
TPP2_P29144_1129_KGCALADHLLHTQAQDGAISTDAEGKEEEGESPLDSLAETFWETTK (UniProt P29144),0.143,-0.674
TRIM33_Q9UPN9_145+150_LLPCLHSFCLR (UniProt Q9UPN9),-0.167,-0.482
TRIR_Q9BQ61_165_AHQCGDDDK (UniProt Q9BQ61),-0.061,-0.491
TRAPPC8_Q9Y2L5_339_KGNTGIIHGACLTLTDHDR (UniProt Q9Y2L5),0.0537,0.0149
TRIT1_Q9H3H1_397_SYHLCDLCDR (UniProt Q9H3H1),0.171,-0.26
TRIM33_Q9UPN9_150_LLPCLHSFCLR (UniProt Q9UPN9),-0.137,-0.537
TRIM26_Q12899_36_DPVTIDCGHVFCR (UniProt Q12899),0.118,-0.0244
TRIP12_Q14669_332_TTGSCASTSR (UniProt Q14669),-0.0703,-0.446
TRAFD1_O14545_119_TELCGNCGR (UniProt O14545),0.656,0.496
TRAPPC13_A5PLN9_32_LTKPTLFTNIPVTCEEK (UniProt A5PLN9),-0.265,-0.143
TRIM25_Q14258_119_TCLVCMASFCQEHLQPHFDSPAFQDHPLQPPVR (UniProt Q14258),0.371,0.313
TRIT1_Q9H3H1_225_FSNPCILWLHADQAVLDER (UniProt Q9H3H1),-0.14,-0.236
TRAPPC12_Q8WVT3_731_EGDSFNTQCLK (UniProt Q8WVT3),-0.354,0.0207
TRAPPC10_P48553_560_HFCQEILDFASQPSDSPGHK (UniProt P48553),0.0818,0.0782
TRIM24_O15164_223_EEVSPEAVGVTSQRPVFCPFHK (UniProt O15164),0.000787,0.25
TRAPPC2L_Q9UL33_112_KLHNSYTDVMCNPFYNPGDR (UniProt Q9UL33),0.141,-0.0539
TRIM25_Q14258_506_FTYCSQVLGLHCYK (UniProt Q14258),-1.09,-4.87
TRIP4_Q15650_541_EQFPDISQESDSPFVFICK (UniProt Q15650),0.0917,-0.191
TRA2B_P62995_119_ANPDPNCCLGVFGLSLYTTER (UniProt P62995),0.163,0.111

Target,probe-labelled cysteine peptide fold change (10 µM),probe-labelled cysteine peptide fold change (50 µM)
TRIM33_Q9UPN9_754_GSCGSSGR (UniProt Q9UPN9),-0.0933,0.937
TRAPPC10_P48553_403_SLGYLCGLVSEK (UniProt P48553),0.199,0.264
TRAPPC8_Q9Y2L5_505_CVLLSAELLK (UniProt Q9Y2L5),0.11,0.225
TRMT10A_Q8TBZ6_285_ACESASHDNQSVR (UniProt Q8TBZ6),-0.00332,-0.311
TRIM28_Q13263_717_VLLALFCHEPCRPLHQLATDSTFSLDQPGGTLDLTLIR (UniProt Q13263),-0.0404,-0.16
TRIM33_Q9UPN9_582_GNMNCGAFQAHQMR (UniProt Q9UPN9),-0.217,-0.598
TRIM36_Q9NQ86_212_ILMCPEHETER (UniProt Q9NQ86),0.117,0.11
TRIM36_Q9NQ86_48+53_ELFTHPLILPCQHSICHK (UniProt Q9NQ86),0.0203,0.00239
TRAPPC13_A5PLN9-4_326_ITNCSSER (UniProt A5PLN9),0.153,0.0668
TRIP12_Q14669_1538_TCPFFFPFDTR (UniProt Q14669),0.173,0.322
TRAF2_Q12933_49_RPFQAQCGHR (UniProt Q12933),0.0207,-0.0565
TRIM28_Q13263_713+717_VLLALFCHEPCRPLHQLATDSTFSLDQPGGTLDLTLIR (UniProt Q13263),0.037,-0.42
TRIP6_Q15654_476_IQELSATVTTDC (UniProt Q15654),-0.194,0.0577
TRIM24_O15164_223_QKEEVSPEAVGVTSQRPVFCPFHK (UniProt O15164),-0.0447,-0.302
TRAPPC11_Q7Z392_117_QSECATR (UniProt Q7Z392),-0.115,0.0706
TRIM33_Q9UPN9_153_CLPEPER (UniProt Q9UPN9),-0.069,-0.24
TPP2_P29144_614_EGLHYTEVCGYDIASPNAGPLFR (UniProt P29144),-0.168,-0.0644
TRAP1_Q12931_573_SPAAECLSEK (UniProt Q12931),0.0623,0.307
TRAPPC13_A5PLN9_327_LSLEAIPDTVNLEEPFHITCK (UniProt A5PLN9),0.0844,0.00702
TRAF3IP3_Q9Y228_501_ELHSELDNLSDEYLSCLR (UniProt Q9Y228),0.399,0.31
TRAPPC12_Q8WVT3_160_EVPGSEAARPEQEPPVAEPVPVCTIFSQR (UniProt Q8WVT3),0.0745,0.0995

Target,probe-labelled cysteine peptide fold change (10 µM),probe-labelled cysteine peptide fold change (50 µM)
TRIM28_Q13263_221+229_HEPLVLFCESCDTLTCR (UniProt Q13263),-0.0841,-0.368
TRABD_Q9H4I3_108_EVQPDVVVVELCQYR (UniProt Q9H4I3),0.183,0.0345
TRIM28_Q13263_232_DCQLNAHK (UniProt Q13263),0.032,-0.219
TRIM21_P19474_359_EAWDLGVCR (UniProt P19474),0.0897,0.107
TPX2_Q9ULW0_145_CATPVIIDEILPSKK (UniProt Q9ULW0),-0.122,-0.223
TRAF6_Q9Y4K3_249_EQMPNHYDLDCPTAPIPCTFSTFGCHEK (UniProt Q9Y4K3),0.211,0.0398
TRAF2_Q12933_223_FHAIGCLETVEGEK (UniProt Q12933),-0.0878,-0.354
TRAPPC11_Q7Z392_615_ADCPHPIR (UniProt Q7Z392),0.126,0.142
TRIP6_Q15654_307_VFHVGCFVCSTCR (UniProt Q15654),-0.0314,0.0788
TPRA1_Q86W33_30_CLLLLYEDIGTSR (UniProt Q86W33),-0.475,-0.297
TRIM24_O15164_134_CPVCSQECAER (UniProt O15164),-0.00949,0.167
TRAF6_Q9Y4K3_73_YECPICLMALR (UniProt Q9Y4K3),0.0869,0.0893
TRAF6_Q9Y4K3_85_EAVQTPCGHR (UniProt Q9Y4K3),0.0336,0.019
TPR_P12270_1127_AESQLLECK (UniProt P12270),0.0505,0.0568
TRIM33_Q9UPN9_276_PVFCPVHK (UniProt Q9UPN9),-0.0409,0.108
TRAF3IP3_Q9Y228_508_KLQHCR (UniProt Q9Y228),0.235,0.0867
TRMT10A_Q8TBZ6_107_LIIDCSFDHLMVLK (UniProt Q8TBZ6),0.118,-0.028
TRMT1L_Q7Z2T5_265_QLIFCTLAALAEER (UniProt Q7Z2T5),0.109,0.218
TRIP6_Q15654_368_AYHPGCFTCVVCHR (UniProt Q15654),0.0578,-0.0809
TRAFD1_O14545_90_LAVCQHCDLELSILK (UniProt O14545),0.19,-0.255
